Measured values reported in doi:10.1101/2022.04.21.489116.
No constants are given. Whether binding was seen depends on the method and setting. Binding seen in cells or lysates may run through a third protein. Some binding calls cover weakened binding; strength is not graded here.

The chains behind the UniProt entries cited, without tags or fusion partners.
UniProt Q969V5: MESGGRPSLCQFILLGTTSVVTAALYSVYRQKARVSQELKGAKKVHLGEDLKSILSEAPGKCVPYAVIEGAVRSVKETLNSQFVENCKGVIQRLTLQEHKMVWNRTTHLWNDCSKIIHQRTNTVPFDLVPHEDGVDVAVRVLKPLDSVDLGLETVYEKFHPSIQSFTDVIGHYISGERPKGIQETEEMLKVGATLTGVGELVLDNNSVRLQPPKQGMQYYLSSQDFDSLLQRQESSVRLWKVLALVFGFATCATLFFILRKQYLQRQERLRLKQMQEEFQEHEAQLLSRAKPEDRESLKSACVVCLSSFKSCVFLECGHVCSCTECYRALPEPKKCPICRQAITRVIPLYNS
UniProt Q99814: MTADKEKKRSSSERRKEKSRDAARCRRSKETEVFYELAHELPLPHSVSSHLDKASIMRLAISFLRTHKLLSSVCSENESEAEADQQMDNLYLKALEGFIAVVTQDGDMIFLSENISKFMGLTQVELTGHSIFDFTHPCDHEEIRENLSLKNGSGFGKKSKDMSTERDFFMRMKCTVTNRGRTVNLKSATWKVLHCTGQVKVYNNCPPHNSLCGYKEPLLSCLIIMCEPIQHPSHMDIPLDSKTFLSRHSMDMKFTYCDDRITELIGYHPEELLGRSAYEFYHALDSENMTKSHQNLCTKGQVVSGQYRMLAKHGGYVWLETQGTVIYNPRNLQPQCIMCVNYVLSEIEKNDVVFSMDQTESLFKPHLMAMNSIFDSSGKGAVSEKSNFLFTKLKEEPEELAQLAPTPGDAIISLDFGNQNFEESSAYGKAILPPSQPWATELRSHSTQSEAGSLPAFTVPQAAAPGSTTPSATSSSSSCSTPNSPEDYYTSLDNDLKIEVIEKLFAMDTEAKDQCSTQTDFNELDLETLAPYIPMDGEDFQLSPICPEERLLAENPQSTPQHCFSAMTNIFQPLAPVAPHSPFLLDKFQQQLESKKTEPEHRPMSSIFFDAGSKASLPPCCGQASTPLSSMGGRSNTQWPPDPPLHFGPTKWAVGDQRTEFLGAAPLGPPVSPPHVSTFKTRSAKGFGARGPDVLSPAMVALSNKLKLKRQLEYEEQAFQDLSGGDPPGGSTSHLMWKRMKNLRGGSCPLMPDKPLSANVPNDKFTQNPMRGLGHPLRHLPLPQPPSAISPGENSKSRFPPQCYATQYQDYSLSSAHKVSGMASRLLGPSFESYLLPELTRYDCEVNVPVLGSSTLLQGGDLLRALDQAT

Molecular target: MUL1 (human (endogenous in 786-O)) (UniProt Q969V5)
Assay: co-IP

HIF-2α (from UniProt Q99814 1-870)
binding: binds
